The list shows only some results of the screen, not a fair sample: it gathers tests that were run many times, whatever their T/C, doses with no T/C, and many T/C values between a quarter and a half above the control. Further doses and runs are listed elsewhere. T/C is the treated group as % of the vehicle group. Some entries give survivors of the animals treated and no T/C: the source files T/C as zero there, which appears to mark a toxic dose or a test without result, not a measured value. Some doses without a T/C left all or most animals alive at the check, yet need not have been tolerated: survival well below the control is almost never listed, so the zero probably covers shortened survival too. Survivors were counted at the toxicity check, usually on the fifth day, unless a day is given; later deaths do not show. Schedules are NCI's codes, read here as Q, the interval in days (D) or hours (H), X, the number of doses. Some entries were tested several times; their values stand side by side, smallest first. Additions like (4×) give the number of equal values in this list. Where survival is the endpoint, the PubChem record calls one and a half times the control and up active, and a quarter to a half above the control has no call in these data; cut-offs in other NCI protocols can differ. Some T/C values carry the count of animals alive at the toxicity check (mostly the fifth day); where none is given, no animal had died by that day.
Test system: P388 leukemia ip, CD2F1 mice, survival T/C
Assay: NCI In Vivo Anticancer Drug Screen. Data for tumor model P388 Leukemia (intraperitoneal) in CD2F1 (CDF1) mice
Details: T/C endpoint: median survival time, higher T/C = longer survival
[1] = dose: 400.0 mg/kg/injection, schedule: Q01DX001 (ip), vehicle: Klucel (hydroxypropylcellulose) (HPC)
[2] = dose: 200.0 mg/kg/injection, schedule: Q04DX003 (ip), vehicle: saline
[3] = dose: 400.0 mg/kg/injection, schedule: Q04DX003 (ip), vehicle: saline
[4] = dose: 50.0 mg/kg/injection, schedule: Q01DX009 (ip), vehicle: saline with Tween-80
[5] = dose: 50.0 mg/kg/injection, schedule: Q01DX005 (ip), vehicle: saline with Tween-80
[6] = dose: 100.0 mg/kg/injection, schedule: Q01DX005 (ip), vehicle: saline with Tween-80
[7] = dose: 200.0 mg/kg/injection, schedule: Q01DX005 (ip), vehicle: saline with Tween-80
[8] = dose: 100.0 mg/kg/injection, schedule: Q01DX009 (ip), vehicle: saline with Tween-80
[9] = dose: 200.0 mg/kg/injection, schedule: Q01DX009 (ip), vehicle: saline with Tween-80
[10] = dose: 400.0 mg/kg/injection, schedule: Q01DX009 (ip), vehicle: saline with Tween-80
[11] = dose: 200.0 mg/kg/injection, schedule: Q01DX009 (ip), vehicle: Klucel (hydroxypropylcellulose) (HPC)
[12] = dose: 200.0 mg/kg/injection, schedule: Q04DX002 (ip), vehicle: saline with Tween-80
[13] = dose: 400.0 mg/kg/injection, schedule: Q04DX002 (ip), vehicle: saline with Tween-80
[14] = dose: 12.5 mg/kg/injection, schedule: Q01DX009 (ip), vehicle: other
[15] = dose: 240.0 mg/kg/injection, schedule: Q01DX005 (ip), vehicle: saline with Tween-80

With `COC1=CC[C@H]2[C@H]3Cc4ccc(OC)c5c4[C@@]2(CCN3CC2CC2)C1O5` (stereo partly drawn) the survivor count (dose: 400.0 mg/kg/injection, schedule: Q04DX002 (ip), vehicle: Klucel (hydroxypropylcellulose) (HPC)) was 4 of 6.
For `CNC(=S)N\N=C/C(/C=C/c1ccccc1)=N\NC(=S)NC`, the survivor count [1] was 6 of 6.
In the case of `CC(=O)O/N=C/c1cc[n+](C)cc1`, the survivor count [2] was 3 of 6 and the survivor count [3] was 0 of 6.
In the case of `C1CC1C(=NN=C(C1CC1)C1CC1)C1CC1`, the survivor count [4] was 6 of 6.
For `COc1cc(NCCCCCNC(C)C)c2ncccc2c1`, the survivor count [5] was 1 of 5, the survivor count [6] was 0 of 5 and the survivor count [7] was 0 of 5.
In the case of `COc1cc(C2c3c(oc4ccccc4c3=O)Oc3oc4ccccc4c(=O)c32)cc(OC)c1O`, the survivor count (dose: 60.0 mg/kg/injection, schedule: Q01DX005 (ip), vehicle: saline with Tween-80) was 6 of 6.
`C=CC(=NC(C)(C)C)Nc1ccccc1C#N` was tested, and the survivor count (dose: 25.0 mg/kg/injection, schedule: Q01DX009 (ip), vehicle: saline with Tween-80) was 6 of 6, the survivor count [4] was 0 of 6 and the survivor count [8] was 0 of 6. For the same molecule, the survivor count [9] was 0 of 6.
`CN(CCCN(C)N=Nc1ccccc1C(=O)O)N=Nc1ccccc1C(=O)O` was tested, and the survivor count [10] was 6 of 6.
With `COc1cc2c3cc1Oc1cc(ccc1O)C[C@@H]1c4c(cc(OC)c(O)c4Oc4ccc(cc4)C[C@@H]3[N+](C)(C)CC2)CC[N+]1(C)C` the survivor count (dose: 0.5 mg/kg/injection, schedule: Q01DX009 (ip), vehicle: saline with Tween-80) was 3 of 6 and the survivor count (dose: 1.0 mg/kg/injection, schedule: Q01DX009 (ip), vehicle: saline with Tween-80) was 0 of 6.
For `CS(=O)(=O)[O][Sn]([CH3])([CH3])[O]S(C)(=O)=O`, the survivor count (dose: 100.0 mg/kg/injection, schedule: Q04DX003 (ip), vehicle: saline) was 0 of 6, the survivor count [2] was 0 of 6 and the survivor count [3] was 0 of 6.
For `C[C@H]1CC(=O)SC1=O`, the survivor count (dose: 100.0 mg/kg/injection, schedule: Q04DX002 (ip), vehicle: saline) was 5 of 6.
With `O=c1ccc2ccccc2o1` the survivor count (dose: 25.0 mg/kg/injection, schedule: Q01DX009 (ip), vehicle: Klucel (hydroxypropylcellulose) (HPC)) was 6 of 6, the T/C [4] was 103, 113, 178 % of control and the survivor count [4] was 3 of 6. The survivor count [8] was 2 of 6, the survivor count [11] was 0 of 6 and the survivor count [9] was 3 of 6. For the same molecule, the survivor count (dose: 300.0 mg/kg/injection, schedule: Q01DX009 (ip), vehicle: Klucel (hydroxypropylcellulose) (HPC)) was 0 of 6, the survivor count [10] was 4 of 6 and the survivor count (dose: 800.0 mg/kg/injection, schedule: Q01DX009 (ip), vehicle: saline with Tween-80) was 3 of 6.
`CC(C)N1C(=O)C=C(c2ccc([N+](=O)[O-])cc2)C1=O` was tested, and the survivor count [8] was 4 of 6 and the survivor count [9] was 1 of 6.
In the case of `COc1cc2c3c(c1O)-c1cc4c(cc1CC3N(C)CC2)OCO4` (stereo not drawn), the survivor count [12] was 0 of 6 and the survivor count [13] was 0 of 6.
For `Cc1nnc(C)s1`, the T/C [11] was 136 % of control and the T/C (dose: 600.0 mg/kg/injection, schedule: Q01DX009 (ip), vehicle: Klucel (hydroxypropylcellulose) (HPC)) was 126 % of control.
With `COc1cccc2c1C(=O)c1c(O)c3c(c(O)c1C2=O)CC(O)(C(=O)CO)CC3OC1CC(N)C(O)C(C)O1` (stereo not drawn) (tested in a mixture with another compound) the survivor count (dose: 3.13 mg/kg/injection, schedule: Q01DX009 (ip), vehicle: other) was 6 of 6, the survivor count [14] was 5 of 6 and the survivor count (dose: 50.0 mg/kg/injection, schedule: Q01DX009 (ip), vehicle: other) was 4 of 6.
With `C#CCn1cnc2c(N)ncnc21` the survivor count (dose: 200.0 mg/kg/injection, schedule: Q01DX005 (ip), vehicle: Klucel (hydroxypropylcellulose) (HPC)) was 4 of 6.
In the case of `O=C1CSC(c2c(F)cccc2Cl)N1c1ncccn1` (stereo not drawn), the survivor count (dose: 240.0 mg/kg/injection, schedule: Q01DX005 (ip), vehicle: Klucel (hydroxypropylcellulose) (HPC)) was 0 of 6.
`O=C(NC1CCC1)OCc1c(COC(=O)NC2CCC2)c(-c2ccc(Cl)c(Cl)c2)n2c1CCC2` was tested, and the survivor count (dose: 1.56 mg/kg/injection, schedule: Q01DX009 (ip), vehicle: distilled water + Tween-80) was 6 of 6, the T/C (dose: 6.25 mg/kg/injection, schedule: Q01DX009 (ip), vehicle: distilled water + Tween-80, evaluated on day 30) was 148 % of control and the T/C (dose: 6.25 mg/kg/injection, schedule: Q01DX009 (ip), vehicle: distilled water + Tween-80, evaluated on day 45) was 142 % of control. The T/C (dose: 12.5 mg/kg/injection, schedule: Q01DX009 (ip), vehicle: distilled water + Tween-80) was 147 % of control, the survivor count (dose: 100.0 mg/kg/injection, schedule: Q01DX009 (ip), vehicle: distilled water + Tween-80) was 4 of 6 and 6 of 6 and the survivor count (dose: 200.0 mg/kg/injection, schedule: Q01DX009 (ip), vehicle: distilled water + Tween-80) was 1 of 6.
`COc1cc(C2C(C#N)=CNc3nc(N)nc(N)c32)cc(OC)c1OC` (stereo not drawn) was tested, and the T/C (dose: 120.0 mg/kg/injection, schedule: Q01DX005 (ip), vehicle: saline with Tween-80) was 126 % of control [5 of 6 alive] and the T/C [15] was 137 % of control.
For `c1ccc(CN2CCC3(CC2)CO3)cc1`, the survivor count [1] was 0 of 6.
In the case of `[NH-]C(CCC(N)=O)C(=O)O.[NH-]C(CCCN=C(N)N)C(=O)O.[Zn+2]` (stereo not drawn), the survivor count (dose: 200.0 mg/kg/injection, schedule: Q01DX005 (ip), vehicle: saline) was 3 of 6 (2×).
In the case of `Nc1n[n+](-c2cccc([N+](=O)[O-])c2)no1`, the T/C [14] was 127 % of control, the T/C (dose: 12.5 mg/kg/injection, schedule: Q01DX009 (ip), vehicle: water) was 137 % of control and the T/C (dose: 25.0 mg/kg/injection, schedule: Q01DX009 (ip), vehicle: other) was 139 % of control. For the same molecule, the survivor count (dose: 50.0 mg/kg/injection, schedule: Q01DX009 (ip), vehicle: water) was 4 of 6 and the survivor count (dose: 100.0 mg/kg/injection, schedule: Q01DX009 (ip), vehicle: water) was 0 of 6.
`CC(C)(C)N=C(Cc1ccccc1)N1CCCCC1` was tested, and the survivor count [9] was 1 of 6.
With `COC(=O)c1nnn(Cc2ccccc2)c1Cl` the survivor count (dose: 50.0 mg/kg/injection, schedule: Q01DX005 (ip), vehicle: Klucel (hydroxypropylcellulose) (HPC)) was 4 of 6.
In the case of `CN1C(=O)C(O)(C2=C3OCOC3=CC(=O)C2=O)c2ccccc21` (stereo not drawn), the survivor count [5] was 3 of 6, the survivor count [6] was 0 of 6 and the survivor count [7] was 0 of 6.
For `CCOC(=O)CSc1sc(C(=O)OCC)c(N)c1C#N`, the survivor count [8] was 6 of 6 and the survivor count [9] was 6 of 6.
In the case of `CC1(C)OC(CC(=O)O)C23COC(C(=O)C4(C)C2CCC2(C)C(C5CCOC5)OC(=O)C5OC524)C13` (stereo not drawn), the survivor count (dose: 8.0 mg/kg/injection, schedule: Q01DX009 (ip), vehicle: saline + alcohol) was 4 of 6.
In the case of `CCC1=CC(C(O)CC(C)C)C(C)(Cc2ccc(CC)cn2)NC1c1ccccc1` (stereo not drawn), the survivor count [12] was 0 of 6 and the survivor count [13] was 0 of 6.
`OCc1c(Cl)n(-c2ccccc2)c2ccccc12` was tested, and the survivor count (dose: 200.0 mg/kg/injection, schedule: Q04DX002 (ip), vehicle: Klucel (hydroxypropylcellulose) (HPC)) was 6 of 6.
In the case of `CC1(O)CC2(O)C=CC3=C(C(=O)c4cccc(O)c4C3=O)C2(O)C(=O)C1O` (stereo not drawn), the survivor count (dose: 3.0 mg/kg/injection, schedule: Q01DX005 (ip), vehicle: distilled water + Tween-80 + alcohol) was 3 of 6, the survivor count (dose: 3.12 mg/kg/injection, schedule: Q01DX005 (ip), vehicle: distilled water + Tween-80 + alcohol) was 0 of 6 and the survivor count (dose: 6.25 mg/kg/injection, schedule: Q01DX005 (ip), vehicle: distilled water + Tween-80 + alcohol) was 0 of 6. The survivor count (dose: 12.5 mg/kg/injection, schedule: Q01DX005 (ip), vehicle: distilled water + Tween-80 + alcohol) was 0 of 6 and the survivor count (dose: 25.0 mg/kg/injection, schedule: Q01DX005 (ip), vehicle: distilled water + Tween-80 + alcohol) was 0 of 6.
In the case of `CCc1ccccc1NC1=C(Cl)C(=O)c2ccccc2C1=O`, the survivor count [15] was 0 of 6.
`CCC#CCN(CCCC)CCCC` was tested, and the survivor count [7] was 0 of 5.

— PubChem BioAssay AID330 (DTP/NCI, 2004)
